Data taken from patent US20020165133A1 (priority 2001, published 2002).
Entries after “also recorded” stand apart in the source; their conditions may differ. For at least one compound, name, drawing or mass did not settle the structure.

How the values were obtained:
[1] = tested on: C57BL/6 mice; test: Test of hair regrowth effects on the shaved backs of C57BL/6 mice; format: in vivo; settings: C57BL/6 mice (female), applied over hair removed area once a day for 30 days, 100 μl (0.05% w/v)
Text: C57BL/6 mice (female), 42˜49 days old, were used in this test.
The mice were removed of hair on their backs using an electric shaver, and weighed. The mice were divided into several groups with weights equally distributed. […] The degree of hair growth were judged by naked eye and the back sides of the mice were photographed.

[2] = compared with cyclosporin A; Transplantation 1987; Clin. Chem. 1990; Transplant. Proc. 1988; cited from earlier work

For `C/C=C/C[C@@H](C)[C@@H](O)[C@H]1C(=O)N[C@@H](CC)C(=O)N(C)CC(=O)N(C)[C@@H](CC(C)C)C(=O)N[C@@H](C(C)C)C(=O)N(C)[C@@H](CC(C)C)C(=O)N[C@@H](C)C(=O)N[C@H](C)C(=O)N(C)[C@@H](CC(C)(C)O)C(=O)N(C)[C@@H](CC(C)C)C(=O)N(C)[C@@H](C(C)C)C(=O)N1C` [[γ-hydroxy-N-methyl-L-leucine^9]cyclosporin A], the “hair growth effect (degree of hair growth judged by naked eye)” value [1] is given as “comparable to that of cyclosporin A; also recorded: superior hair regrowth (restoring) effect than any other compounds”, the “hair growth effect (degree of hair growth judged by naked eye)” value ([1]; listed as M1) is given as “excellent hair growth effect” and the immunosuppressiveness [2] is given as “lower than that of cyclosporin A”.
